# Data as given in article PMC9705435 (Nature Communications, 2022).
# HELM strings list residues between dots; [ac] is acetyl, [am] amide, other brackets name non-standard units. Numbered stars: 1 amine (or outer) side, 2 acyl side, 3 side chain; on linkers, the order of the positions; unused ones are H or OH. Square brackets hold non-standard residues; d marks the D form. Ends that are not written are not given here. azaPhe = O=C(N(Cc1ccccc1)N[*:1])[*:2]; azaPro = O=C(N1CCCN1[*:1])[*:2]; azaGly = NNC(=O)O
# Tests used:
# [1] = general procedure: Fmoc solid-phase peptide synthesis; Rink amide; arginine-pre-loaded Wang resin; TBACl / TCCA activation of S-ethyl thiocarbazates in DCM
# [2] = peptide made by a vendor (Fmoc solid-phase peptide synthesis; Rink amide; arginine-pre-loaded Wang resin; TBACl / TCCA activation of S-ethyl thiocarbazates in DCM); conditions: whole synthesis, 215 nm
# [3] = general procedure: Fmoc solid-phase peptide synthesis; Rink amide; TBACl / TCCA activation of S-ethyl thiocarbazates in DCM; conditions: whole synthesis, HPLC (254 nm, 215 nm), scale 0.4 mmol
# [4] = whole synthesis, HPLC (254 nm, 215 nm), scale 0.1 mmol
# [5] = late stage modification step, 215 nm
Substance,isolated yield ([1]; whole synthesis) [%],"crude HPLC purity ([1]; whole synthesis, 215 nm) [%]","final HPLC purity ([1]; whole synthesis, 215 nm) [%]","crude purity (method not given) [1, 4]",step yield ([1]; late stage modification step) [%],"final HPLC purity [1, 5] [%]","crude HPLC purity ([1]; whole synthesis, 254 nm) [%]",other results
H-RPPG[azaPhe]SPFR-OH (N-terminus and C-terminus assumed; SMILES N=C(N)NCCC[C@H](NC(=O)[C@H](Cc1ccccc1)NC(=O)[C@@H]1CCCN1C(=O)[C@H](CO)NC(=O)N(Cc1ccccc1)NC(=O)CNC(=O)[C@@H]1CCCN1C(=O)[C@@H]1CCCN1C(=O)[C@@H](N)CCCNC(=N)N)C(=O)O),16.5,66.0,95.3,66% crude purity,–,–,–,–
H-RPPG[azaPhe]SP[azaPhe]R-OH (N-terminus and C-terminus assumed; SMILES N=C(N)NCCC[C@H](NC(=O)N(Cc1ccccc1)NC(=O)[C@@H]1CCCN1C(=O)[C@H](CO)NC(=O)N(Cc1ccccc1)NC(=O)CNC(=O)[C@@H]1CCCN1C(=O)[C@@H]1CCCN1C(=O)[C@@H](N)CCCNC(=N)N)C(=O)O),17.7,66.0,95.3,66%,–,–,–,–
H-RPP[azaGly]FSPFR-OH (N-terminus and C-terminus assumed; SMILES N=C(N)NCCC[C@H](NC(=O)[C@H](Cc1ccccc1)NC(=O)[C@@H]1CCCN1C(=O)[C@H](CO)NC(=O)[C@H](Cc1ccccc1)NC(=O)NNC(=O)[C@@H]1CCCN1C(=O)[C@@H]1CCCN1C(=O)[C@@H](N)CCCNC(=N)N)C(=O)O),17.7,34.0,97.6,34% crude purity,–,–,–,–
PEPTIDE1{F.S.S.E.[am]}$$$$V2.0,–,–,–,–,–,–,–,final HPLC purity [2]: 95.9%
PEPTIDE1{F.S.S.[azE].[am]}$$$$V2.0,–,–,–,–,46.0,97.8,93.0,–
PEPTIDE1{F.S.S.[azQ].[am]}$$$$V2.0,–,–,–,–,39.0,97.9,50.2,–
PEPTIDE1{R.P.P.G.F.S.P.F.[azR]}$$$$V2.0,5.40,19.2,95.9,19.2%,–,–,–,–
PEPTIDE1{R.P.P.G.F.S.[azP].F.R}$$$$V2.0,23.6,49.6,95.0,49.6% crude purity,–,–,–,–
PEPTIDE1{[azF].S.S.E.[am]}$$$$V2.0,–,–,–,–,29.5,96.4,76.0,–
PEPTIDE1{[azF].S.S.E}$$$$V2.0,–,–,–,–,63.0,98.0,90.2,–
PEPTIDE1{[azF].S.S.Q.[am]}$$$$V2.0,–,–,–,–,47.0,96.4,82.0,–
PEPTIDE1{[azF].S.S.Q}$$$$V2.0,–,–,–,–,29.5,95.8,71.0,–
PEPTIDE1{[azF].S.S.[azE].[am]}$$$$V2.0,–,–,–,–,20.6,97.9,67.0,–
PEPTIDE1{[azF].S.S.[azQ].[am]}$$$$V2.0,–,–,–,–,53.0,96.8,41.0,crude purity (method not given) [3]: 41% crude purity
PEPTIDE1{[azR].P.P.G.F.S.P.F.R}$$$$V2.0,–,85.0,–,–,–,–,–,"difficulty met ([1]; whole synthesis): found to be unstable after deprotection and purification; crude HPLC purity [1, 4]: 85.7% crude purity"
RPPGFSPFR,48.0,85.9,98.3,–,–,–,–,–
RPPGFSP[azaPhe]R,14.0,68.4,97.6,–,–,–,–,"crude purity (method not given) ([1]; whole synthesis, HPLC (254 nm, 215 nm)): 68.4%"
R[azaPro]PGFSPFR,35.4,38.0,97.0,38% crude purity,–,–,–,–
R[azaPro]PGFSP[azaPhe]R,21.0,42.8,98.5,42.8%,–,–,–,–
